Results as given in PMC11712848.
Results are given in words; binding and its absence hold for the method and conditions named. Some entries that bind do so weakly or less than the wild type.

Protein sequences, listed by entry. Tags and fused reporters are not part of them. Residues count along the entry.
UniProt Q14416, residues 19-872: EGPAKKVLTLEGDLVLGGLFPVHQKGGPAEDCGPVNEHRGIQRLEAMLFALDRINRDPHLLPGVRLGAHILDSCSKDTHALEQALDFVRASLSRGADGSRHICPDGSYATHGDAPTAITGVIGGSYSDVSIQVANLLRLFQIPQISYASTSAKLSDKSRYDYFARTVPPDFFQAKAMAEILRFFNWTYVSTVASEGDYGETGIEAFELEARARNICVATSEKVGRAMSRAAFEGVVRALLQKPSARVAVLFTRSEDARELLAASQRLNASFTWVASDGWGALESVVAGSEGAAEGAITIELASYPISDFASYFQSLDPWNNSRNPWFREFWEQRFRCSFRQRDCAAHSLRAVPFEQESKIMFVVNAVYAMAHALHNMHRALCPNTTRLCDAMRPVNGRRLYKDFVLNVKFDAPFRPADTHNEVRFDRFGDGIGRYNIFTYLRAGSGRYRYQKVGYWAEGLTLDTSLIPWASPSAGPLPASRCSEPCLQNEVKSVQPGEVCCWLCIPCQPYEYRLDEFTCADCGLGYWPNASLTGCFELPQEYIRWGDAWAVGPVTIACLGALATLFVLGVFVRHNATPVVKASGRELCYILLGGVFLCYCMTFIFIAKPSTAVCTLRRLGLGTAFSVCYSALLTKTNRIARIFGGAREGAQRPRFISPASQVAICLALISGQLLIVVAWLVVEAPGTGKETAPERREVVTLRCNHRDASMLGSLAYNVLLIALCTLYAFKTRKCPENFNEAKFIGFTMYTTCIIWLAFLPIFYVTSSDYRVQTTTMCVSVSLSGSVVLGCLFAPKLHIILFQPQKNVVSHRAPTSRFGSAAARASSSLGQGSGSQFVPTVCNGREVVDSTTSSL
UniProt Q14832, residues 23-879: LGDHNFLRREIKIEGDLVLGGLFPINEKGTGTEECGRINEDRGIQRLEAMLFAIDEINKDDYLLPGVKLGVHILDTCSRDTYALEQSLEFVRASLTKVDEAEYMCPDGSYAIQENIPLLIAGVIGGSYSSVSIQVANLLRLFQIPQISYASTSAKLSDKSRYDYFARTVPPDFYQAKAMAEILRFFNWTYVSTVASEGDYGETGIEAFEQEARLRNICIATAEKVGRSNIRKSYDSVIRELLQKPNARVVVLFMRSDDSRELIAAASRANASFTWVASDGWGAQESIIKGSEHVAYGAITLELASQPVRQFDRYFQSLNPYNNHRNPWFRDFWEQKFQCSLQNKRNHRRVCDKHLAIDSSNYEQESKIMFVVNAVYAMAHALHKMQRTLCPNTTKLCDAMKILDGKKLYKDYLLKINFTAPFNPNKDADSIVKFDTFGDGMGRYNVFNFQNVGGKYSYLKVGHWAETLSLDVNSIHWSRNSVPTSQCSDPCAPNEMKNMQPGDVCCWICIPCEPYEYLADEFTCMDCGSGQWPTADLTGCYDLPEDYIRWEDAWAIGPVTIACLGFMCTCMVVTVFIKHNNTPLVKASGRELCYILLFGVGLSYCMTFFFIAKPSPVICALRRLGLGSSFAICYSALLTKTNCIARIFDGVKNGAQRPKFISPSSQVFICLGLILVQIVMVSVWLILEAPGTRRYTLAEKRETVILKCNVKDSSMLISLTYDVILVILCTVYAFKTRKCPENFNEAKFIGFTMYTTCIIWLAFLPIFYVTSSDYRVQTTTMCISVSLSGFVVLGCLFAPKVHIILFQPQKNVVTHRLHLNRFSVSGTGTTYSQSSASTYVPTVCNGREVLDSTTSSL
UniProt P05067, residues 18-770: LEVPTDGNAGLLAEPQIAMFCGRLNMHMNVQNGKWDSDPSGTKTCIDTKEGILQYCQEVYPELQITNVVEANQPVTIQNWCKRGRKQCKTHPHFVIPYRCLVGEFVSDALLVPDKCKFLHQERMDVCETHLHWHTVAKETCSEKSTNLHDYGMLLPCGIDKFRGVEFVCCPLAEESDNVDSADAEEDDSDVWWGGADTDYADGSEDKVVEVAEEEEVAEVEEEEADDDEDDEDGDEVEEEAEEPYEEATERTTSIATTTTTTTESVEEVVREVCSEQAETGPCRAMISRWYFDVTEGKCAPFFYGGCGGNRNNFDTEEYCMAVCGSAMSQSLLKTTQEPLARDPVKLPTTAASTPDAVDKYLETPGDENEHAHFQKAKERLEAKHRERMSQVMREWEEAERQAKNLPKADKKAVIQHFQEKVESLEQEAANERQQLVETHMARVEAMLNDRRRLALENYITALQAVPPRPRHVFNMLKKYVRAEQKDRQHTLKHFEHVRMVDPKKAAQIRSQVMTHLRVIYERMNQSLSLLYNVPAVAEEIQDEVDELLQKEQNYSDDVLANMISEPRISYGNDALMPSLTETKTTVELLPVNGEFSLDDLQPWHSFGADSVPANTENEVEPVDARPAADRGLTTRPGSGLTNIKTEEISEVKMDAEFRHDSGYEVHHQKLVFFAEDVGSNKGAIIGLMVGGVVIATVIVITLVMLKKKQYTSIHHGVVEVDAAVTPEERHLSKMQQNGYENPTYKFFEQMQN

Legend:
[1] = biological target: metabotropic glutamate receptor 2 (UniProt Q14416); test: AlphaScreen or HTRF; HTRF (FRET-based) between APP and mGluR2 or mGluR3 at the surface of transfected cells
[2] = biological target: metabotropic glutamate receptor 3 (UniProt Q14832); test: as above

APP (from UniProt P05067 18-770)
binding [1]: no binding | binding [2]: binds
